Assay results from PMC4762519.
No constants are given. Whether binding was seen depends on the method and setting. In cells and extracts the contact can be indirect. Here binding means that the protein was enriched with, or labelled near, the bait; the list need not be complete. For some of these results: No binding means not detected with the bait. Tags and fused reporters may be left off the sequences shown.

The chains behind the UniProt entries cited, without tags or fusion partners. Where a name states a change or a piece, a line headed by the entry shows the natural chain unless it says otherwise.
UniProt P14713: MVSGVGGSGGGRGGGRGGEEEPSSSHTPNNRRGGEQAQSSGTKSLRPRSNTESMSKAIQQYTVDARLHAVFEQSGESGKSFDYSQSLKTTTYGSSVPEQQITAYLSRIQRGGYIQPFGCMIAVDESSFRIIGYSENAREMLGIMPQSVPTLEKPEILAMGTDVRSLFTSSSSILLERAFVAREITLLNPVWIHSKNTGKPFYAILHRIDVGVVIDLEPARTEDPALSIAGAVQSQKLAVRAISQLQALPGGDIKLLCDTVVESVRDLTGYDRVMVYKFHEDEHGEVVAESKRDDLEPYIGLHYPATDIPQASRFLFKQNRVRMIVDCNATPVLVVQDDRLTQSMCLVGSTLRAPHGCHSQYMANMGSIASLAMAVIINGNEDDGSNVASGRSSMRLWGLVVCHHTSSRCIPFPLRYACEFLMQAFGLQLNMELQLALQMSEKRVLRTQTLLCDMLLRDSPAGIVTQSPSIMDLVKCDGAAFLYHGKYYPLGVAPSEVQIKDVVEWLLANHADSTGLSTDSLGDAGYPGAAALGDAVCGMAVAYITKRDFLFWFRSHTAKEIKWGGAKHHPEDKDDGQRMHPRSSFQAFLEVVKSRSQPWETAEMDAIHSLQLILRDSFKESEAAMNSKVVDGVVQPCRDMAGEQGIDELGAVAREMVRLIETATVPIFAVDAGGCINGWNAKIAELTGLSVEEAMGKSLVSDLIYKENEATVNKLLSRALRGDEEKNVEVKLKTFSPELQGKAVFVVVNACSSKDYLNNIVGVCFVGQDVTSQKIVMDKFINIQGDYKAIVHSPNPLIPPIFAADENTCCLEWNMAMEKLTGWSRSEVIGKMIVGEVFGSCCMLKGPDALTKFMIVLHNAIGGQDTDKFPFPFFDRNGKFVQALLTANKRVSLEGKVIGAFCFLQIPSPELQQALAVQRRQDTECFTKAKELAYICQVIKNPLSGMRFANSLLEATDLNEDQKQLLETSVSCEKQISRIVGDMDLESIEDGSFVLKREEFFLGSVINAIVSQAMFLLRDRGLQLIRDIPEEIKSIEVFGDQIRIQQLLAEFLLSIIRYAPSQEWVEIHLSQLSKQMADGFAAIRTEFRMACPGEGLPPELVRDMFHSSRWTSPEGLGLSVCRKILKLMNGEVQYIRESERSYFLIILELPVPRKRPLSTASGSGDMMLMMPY
UniProt P43297: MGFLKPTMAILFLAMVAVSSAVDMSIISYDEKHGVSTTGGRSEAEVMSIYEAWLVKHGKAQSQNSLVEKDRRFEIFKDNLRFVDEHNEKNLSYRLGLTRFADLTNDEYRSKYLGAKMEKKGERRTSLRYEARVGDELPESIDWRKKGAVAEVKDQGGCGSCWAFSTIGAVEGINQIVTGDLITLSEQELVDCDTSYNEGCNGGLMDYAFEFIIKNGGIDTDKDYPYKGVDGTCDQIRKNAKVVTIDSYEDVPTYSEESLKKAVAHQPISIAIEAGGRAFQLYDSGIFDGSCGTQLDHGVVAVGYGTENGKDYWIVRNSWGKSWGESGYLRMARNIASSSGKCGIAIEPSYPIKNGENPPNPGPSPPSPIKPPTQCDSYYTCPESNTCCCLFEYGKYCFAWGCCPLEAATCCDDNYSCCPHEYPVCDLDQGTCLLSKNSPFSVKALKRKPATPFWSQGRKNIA
UniProt Q94KE2: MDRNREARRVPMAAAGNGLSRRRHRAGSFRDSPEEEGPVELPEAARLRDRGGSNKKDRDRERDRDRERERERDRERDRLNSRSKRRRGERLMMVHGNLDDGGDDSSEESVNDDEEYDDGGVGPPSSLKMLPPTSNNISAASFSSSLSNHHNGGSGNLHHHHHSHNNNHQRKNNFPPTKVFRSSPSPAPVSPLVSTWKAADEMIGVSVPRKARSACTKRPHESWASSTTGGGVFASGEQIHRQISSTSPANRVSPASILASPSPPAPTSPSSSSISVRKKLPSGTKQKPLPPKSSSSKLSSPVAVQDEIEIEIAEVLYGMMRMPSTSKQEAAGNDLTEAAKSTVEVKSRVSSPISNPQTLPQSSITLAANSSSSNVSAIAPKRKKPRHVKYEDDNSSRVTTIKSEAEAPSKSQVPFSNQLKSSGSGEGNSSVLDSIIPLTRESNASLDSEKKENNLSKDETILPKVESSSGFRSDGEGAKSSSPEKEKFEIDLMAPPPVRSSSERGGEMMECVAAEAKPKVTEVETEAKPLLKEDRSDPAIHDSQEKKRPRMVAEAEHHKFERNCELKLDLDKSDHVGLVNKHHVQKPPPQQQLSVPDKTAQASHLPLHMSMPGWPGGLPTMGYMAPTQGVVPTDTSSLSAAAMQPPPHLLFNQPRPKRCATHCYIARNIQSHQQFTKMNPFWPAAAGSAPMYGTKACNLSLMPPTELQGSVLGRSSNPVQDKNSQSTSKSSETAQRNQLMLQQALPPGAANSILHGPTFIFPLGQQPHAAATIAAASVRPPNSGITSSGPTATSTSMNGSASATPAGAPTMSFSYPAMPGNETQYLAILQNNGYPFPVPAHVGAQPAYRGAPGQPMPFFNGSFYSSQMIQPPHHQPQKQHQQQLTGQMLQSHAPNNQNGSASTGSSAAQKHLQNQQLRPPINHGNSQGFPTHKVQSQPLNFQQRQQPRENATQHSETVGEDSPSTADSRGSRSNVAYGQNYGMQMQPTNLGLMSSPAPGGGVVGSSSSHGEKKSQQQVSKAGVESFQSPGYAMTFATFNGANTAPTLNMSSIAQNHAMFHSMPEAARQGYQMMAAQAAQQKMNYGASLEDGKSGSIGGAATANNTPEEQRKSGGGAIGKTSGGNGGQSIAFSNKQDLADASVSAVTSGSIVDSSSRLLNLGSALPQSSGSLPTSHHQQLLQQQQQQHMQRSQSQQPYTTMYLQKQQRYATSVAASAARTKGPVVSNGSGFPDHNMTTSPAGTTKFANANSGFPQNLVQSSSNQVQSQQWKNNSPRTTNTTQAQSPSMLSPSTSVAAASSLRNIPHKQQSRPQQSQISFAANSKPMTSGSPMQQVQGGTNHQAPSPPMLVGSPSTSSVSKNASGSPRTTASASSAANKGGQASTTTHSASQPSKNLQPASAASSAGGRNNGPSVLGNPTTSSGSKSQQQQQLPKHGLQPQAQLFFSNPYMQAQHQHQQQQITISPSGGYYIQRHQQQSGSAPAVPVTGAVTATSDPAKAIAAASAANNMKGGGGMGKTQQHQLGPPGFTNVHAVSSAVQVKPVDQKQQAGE
UniProt O24456: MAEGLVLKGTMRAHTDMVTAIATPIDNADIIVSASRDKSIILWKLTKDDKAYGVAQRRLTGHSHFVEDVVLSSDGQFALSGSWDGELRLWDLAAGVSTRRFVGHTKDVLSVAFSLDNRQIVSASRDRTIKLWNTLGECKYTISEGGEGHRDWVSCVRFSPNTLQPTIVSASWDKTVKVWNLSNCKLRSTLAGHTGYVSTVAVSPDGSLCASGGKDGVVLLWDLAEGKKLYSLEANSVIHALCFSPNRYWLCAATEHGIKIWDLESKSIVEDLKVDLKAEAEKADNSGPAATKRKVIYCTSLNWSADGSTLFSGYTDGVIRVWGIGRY

What was measured:
[1] = biological target: T1, ELF3-HFC (EARLY FLOWERING 3, C-terminally tagged with 6xHis-3xFlag) (A. thaliana) (UniProt O82804); test: affinity purification with mass spectrometry; ELF3-HFC as bait from ELF3::ELF3-HFC #3 elf3-2 seedlings, harvested at ZT12; anti-FLAG beads, 3xFLAG peptide elution, then Talon beads; on-bead digest, LC-MS/MS; compared with GFP-HFC; two replicates; …, TOC1 and TIC also coprecipitated from the phyB-9 background
T1 sequence: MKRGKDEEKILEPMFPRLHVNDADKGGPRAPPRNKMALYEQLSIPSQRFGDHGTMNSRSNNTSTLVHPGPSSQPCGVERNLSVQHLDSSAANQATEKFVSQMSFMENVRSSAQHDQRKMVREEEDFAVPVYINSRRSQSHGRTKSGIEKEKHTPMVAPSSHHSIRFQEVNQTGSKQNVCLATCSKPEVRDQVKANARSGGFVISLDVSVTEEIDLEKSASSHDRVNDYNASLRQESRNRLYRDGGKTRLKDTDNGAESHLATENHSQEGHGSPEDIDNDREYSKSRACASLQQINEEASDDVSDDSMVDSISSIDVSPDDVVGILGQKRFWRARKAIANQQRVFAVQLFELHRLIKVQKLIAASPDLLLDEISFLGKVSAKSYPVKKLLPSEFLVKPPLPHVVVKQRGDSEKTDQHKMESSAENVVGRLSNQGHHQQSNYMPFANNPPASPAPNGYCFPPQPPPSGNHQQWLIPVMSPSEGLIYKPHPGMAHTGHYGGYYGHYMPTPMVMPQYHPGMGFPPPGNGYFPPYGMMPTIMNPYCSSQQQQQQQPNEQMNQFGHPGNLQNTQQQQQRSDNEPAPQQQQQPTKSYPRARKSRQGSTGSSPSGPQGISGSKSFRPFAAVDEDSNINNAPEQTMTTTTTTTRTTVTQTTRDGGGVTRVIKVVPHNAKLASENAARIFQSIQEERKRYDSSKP

[2] = biological target: T1, ELF3-HFC (EARLY FLOWERING 3, C-terminally tagged with 6xHis-3xFlag) (A. thaliana); test: affinity purification with mass spectrometry; ELF3-HFC as bait from ELF3::ELF3-HFC #3 elf3-2 elf4-2 seedlings (no ELF4); same tandem purification; two replicates
[3] = biological target: T1, ELF3-HFC (EARLY FLOWERING 3, C-terminally tagged with 6xHis-3xFlag) (A. thaliana); test: affinity purification with mass spectrometry; ELF3-HFC as bait from ELF3::ELF3-HFC #3 elf3-2 phyB-9 seedlings (no phyB); same tandem purification; two replicates
[4] = biological target: T1, ELF3-HFC (EARLY FLOWERING 3, C-terminally tagged with 6xHis-3xFlag) (A. thaliana); test: affinity purification with mass spectrometry; ELF3-HFC as bait from ELF3::ELF3-HFC #3 elf3-2 seedlings, harvested at ZT12; anti-FLAG beads, 3xFLAG peptide elution, then Talon beads; on-bead digest, LC-MS/MS; compared with GFP-HFC; two replicates; …, TOC1 and TIC also coprecipitated from the phyB-9 background; remark: listed apart in the source
[5] = biological target: T2, ELF4-HFC (EARLY FLOWERING 4, C-terminally tagged with 6xHis-3xFlag) (A. thaliana) (UniProt O04211); test: affinity purification with mass spectrometry; ELF4-HFC as bait from ELF4::ELF4-HFC #51 elf4-3 phyB-9 seedlings (no phyB); same tandem purification; three replicates
T2 sequence: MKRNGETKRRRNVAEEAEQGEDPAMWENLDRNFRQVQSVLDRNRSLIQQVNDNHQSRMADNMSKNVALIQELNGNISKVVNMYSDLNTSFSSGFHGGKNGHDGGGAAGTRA

[6] = biological target: T1, ELF3-HFC (EARLY FLOWERING 3, C-terminally tagged with 6xHis-3xFlag) (A. thaliana); test: condition: only in the elf4-2 mutant background (no ELF4); affinity purification with mass spectrometry; ELF3-HFC as bait from ELF3::ELF3-HFC #3 elf3-2 elf4-2 seedlings (no ELF4); same tandem purification; two replicates

## phytochrome B (from UniProt P14713 1-1172) (receptor)
[1]
  binding: binds

## protease RD21a (from UniProt P43297) (enzyme)
[2]
  binding: binds

## TIME FOR COFFEE (from UniProt Q94KE2 1-1550)
[1]
  binding: binds

## RACK1A (from UniProt O24456 1-327)
[3]
  binding: binds

B1: … (protein, UniProt Q9M2N5 1-696)
chain: MEVYNDDTEMRSPETQPIKETALEVYNDTAEIRSPETQPIEETALEVYNDTEMVSPETQPIKRRKKKSMVWEHFTIEAVEPNCRRAFCKGCNQSFAYSNGNKVAGTSHLKRHIFKGTCPALIHTHDNDNNPLMSTPYTPKTDTPRRRYRSQNNASPYVAFNQDKCRQEIAKMIIMHDYPLHMVQHPGFVSFVQSIQPHFDAVSFNNVQGDCVATYLAEKQNVMKSLEGIPGRFCLTLDFWTSKLTLGYVFITAHYIDSDWKIQKKLLNVLMESYPEADEALSLAVANCVSEWGLEGKLFNVTFNHPASNSAVENIRPQLCIKNPGILDGQLVIGNCVARTFGSLAKDVLEKGKDVIKNIRDSVKHVKTSESHEERFTELKEQLQVPSEKVLSLDDQTQWNTTYMMLVAASELKEVFSCLDTADPDYKKPPSAEDWRHVEALCTFLKPLFEAVSTLQSTGNPSAVTFFHEVWKTQSDLSRAIAGEDPFVTGIAKTMQEKVDKYWRDCSLVLAMAVVMDPRFKMKLVEFSFSKIFGEDAGKNIKTVDDGIHELFTEYMALPSPQNTTSEGGKADGLSDFDTYIMETTGQNLKSELDQYLDETLLPRVQEFDVLDWWKQNKLKYPTLSKMARDILSIPVSAAAFDYVFDMEPREMDEYKTSLRPETVEALICAREWLLESNASSSAAAQNASATIKSEA
[4]
  binding: binds
[4]; record 2
  binding: binds
[4]; record 3
  binding: binds
[2]
  binding: binds
[2]; record 2
  binding: binds
[2]; record 3
  binding: binds
[2]; record 4
  binding: binds
[5]
  binding: binds
[6]
  binding: no binding
